From the supplement of paper PMC4604168 (melanoma cell lines)
The list shows a part of the results. Many values rest on one well or one pass, so single values are uncertain.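 The apoptosis fraction was the count of cleaved-PARP antibody-stained nuclei relative to all DNA-stained nuclei, imaged in 1,536-well plates. Screening doses were set so most cells survived, and baseline and induced cleaved-PARP levels vary greatly across cell lines.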

Legend:
Experiment in all cases: cleaved PARP positive nuclei fraction relative to DMSO control; melanoma cells; higher = more apoptosis
Conditions in all cases: library dose: low library concentration; 72 h
WM115 = test system: WM115
WM1716 = test system: WM1716
WM1745 = test system: WM1745
WM3526 = test system: WM3526
WM3619 = test system: WM3619
WM451Lu = test system: WM451Lu

Row | Structure (SMILES) | cleaved PARP positive nuclei fraction (WM115) [%] | cleaved PARP positive nuclei fraction (WM1716) [%] | cleaved PARP positive nuclei fraction (WM1745) [%] | cleaved PARP positive nuclei fraction (WM3526) [%] | cleaved PARP positive nuclei fraction (WM3619) [%] | cleaved PARP positive nuclei fraction (WM451Lu) [%]
1 | Cn1sc(=O)n(Cc2ccccc2)c1=O + Cc1ccc(NC(=O)c2cccc(N(C)C)c2)cc1NC(=O)c1ccc(O)cc1 [ZM336372] (first compound 0.4 µM, partner dose 2 µM) | 81.2 | 166 | 99.2 | 353 | 106 | 55.9
2 | CN(c1ncccc1CNc1nc(Nc2ccc3c(c2)CC(=O)N3)ncc1C(F)(F)F)S(C)(=O)=O + CO[C@@H]1[C@H](N(C)C(=O)c2ccccc2)C[C@H]2O[C@]1(C)n1c3ccccc3c3c4c(c5c6ccccc6n2c5c31)C(=O)NC4 [Midostaurin] (first compound 0.08 µM, partner dose 0.08 µM) | 36.2 | 311 | 120 | 36.3 | 164 | 269
3 | CC(=O)O[C@@]12CO[C@@H]1C[C@H](O)[C@@]1(C)C(=O)[C@H](O)C3=C(C)[C@@H](OC(=O)[C@H](O)[C@@H](NC(=O)OC(C)(C)C)c4ccccc4)C[C@@](O)([C@@H](OC(=O)c4ccccc4)[C@H]21)C3(C)C [Docetaxel] + CC(=O)c1c(C)c2cnc(Nc3ccc(N4CCNCC4)cn3)nc2n(C2CCCC2)c1=O [palbociclib] (first compound 0.0001 µM, partner dose 0.04 µM) | 250 | 168 | 197 | 194 | 149 | 158
4 | CS(=O)(=O)c1ccc(C(=O)Nc2ccc(Cl)c(-c3ccccn3)c2)c(Cl)c1 [vismodegib] + Cn1cc(/C=C2\C(=O)Nc3cccnc32)c2ccccc21 [GW441756] (first compound 1 µM, partner dose 0.4 µM) | 57 | 95.8 | 71.2 | 66.8 | 85.2 | 30.1
5 | CS(=O)(=O)c1ccc(C(=O)Nc2ccc(Cl)c(-c3ccccn3)c2)c(Cl)c1 [vismodegib] + C[C@]1(c2nc3c(C(N)=O)cccc3[nH]2)CCCN1 [Veliparib] (first compound 1 µM, partner dose 1.4 µM) | 99 | 147 | 94.5 | 38.3 | 81.3 | 39
6 | CN(c1ncccc1CNc1nc(Nc2ccc3c(c2)CC(=O)N3)ncc1C(F)(F)F)S(C)(=O)=O + NC(=O)Nc1cc(-c2cccc(F)c2)sc1C(=O)N[C@H]1CCCNC1 [AZD7762] (first compound 0.08 µM, partner dose 0.02 µM) | 168 | 254 | 106 | 107 | 145 | 152
7 | CC(=O)O[C@@]12CO[C@@H]1C[C@H](O)[C@@]1(C)C(=O)[C@H](O)C3=C(C)[C@@H](OC(=O)[C@H](O)[C@@H](NC(=O)OC(C)(C)C)c4ccccc4)C[C@@](O)([C@@H](OC(=O)c4ccccc4)[C@H]21)C3(C)C [Docetaxel] + Cc1cc([N+](=O)[O-])ccc1NS(=O)(=O)c1cc(Cl)ccc1Cl [FH535] (first compound 0.0001 µM, partner dose 1 µM) | 234 | 284 | 144 | 160 | 150 | 364
8 | Cn1cnc2c(F)c(Nc3ccc(Br)cc3Cl)c(C(=O)NOCCO)cc21 [selumetinib] + NC1(c2ccc(-c3nc4ccn5c(=O)[nH]nc5c4cc3-c3ccccc3)cc2)CCC1 [MK2206] (first compound 0.015 µM, partner dose 0.4 µM) | 314 | 145 | 108 | 113 | 160 | 85.4
9 | CCN(CC)CCNC(=O)c1c(C)[nH]c(/C=C2\C(=O)Nc3ccc(F)cc32)c1C [sunitinib] + CN1CCN(c2ccc3nc(-c4c(N)c5c(F)cccc5[nH]c4=O)[nH]c3c2)CC1 [Dovitinib] (first compound 0.4 µM, partner dose 0.1 µM) | 34.3 | 93 | 129 | 105 | 111 | 63.4
10 | CC(=O)O[C@@]12CO[C@@H]1C[C@H](O)[C@@]1(C)C(=O)[C@H](O)C3=C(C)[C@@H](OC(=O)[C@H](O)[C@@H](NC(=O)OC(C)(C)C)c4ccccc4)C[C@@](O)([C@@H](OC(=O)c4ccccc4)[C@H]21)C3(C)C [Docetaxel] + C=CCNC1=C2C[C@@H](C)C[C@H](OC)[C@H](O)[C@@H](C)/C=C(\C)[C@H](OC(N)=O)[C@@H](OC)/C=C\C=C(/C)C(=O)NC(=CC1=O)C2=O [Tanespimycin] (first compound 0.0001 µM, partner dose 0.002 µM) | 337 | 228 | 151 | 499 | 142 | 219
11 | NC(=O)c1ccc(N(C(N)=O)c2c(F)cccc2F)nc1-c1ccc(F)cc1F + O=C(Nc1ccccc1)c1cc([N+](=O)[O-])ccc1Cl [GW9662] (first compound 0.4 µM, partner dose 2 µM) | 160 | 47.6 | 113 | 203 | 128 | 156

Part of the list above with just cleaved PARP positive nuclei fraction (WM1716) [%], cleaved PARP positive nuclei fraction (WM3526) [%] and cleaved PARP positive nuclei fraction (WM115) [%].
Row,Structure (SMILES),cleaved PARP positive nuclei fraction (WM1716) [%],cleaved PARP positive nuclei fraction (WM3526) [%],cleaved PARP positive nuclei fraction (WM115) [%]
8,"Cn1cnc2c(F)c(Nc3ccc(Br)cc3Cl)c(C(=O)NOCCO)cc21 [selumetinib] + NC1(c2ccc(-c3nc4ccn5c(=O)[nH]nc5c4cc3-c3ccccc3)cc2)CCC1 [MK2206] (first compound 0.015 µM, partner dose 0.4 µM)",145,113,314
9,"CCN(CC)CCNC(=O)c1c(C)[nH]c(/C=C2\C(=O)Nc3ccc(F)cc32)c1C [sunitinib] + CN1CCN(c2ccc3nc(-c4c(N)c5c(F)cccc5[nH]c4=O)[nH]c3c2)CC1 [Dovitinib] (first compound 0.4 µM, partner dose 0.1 µM)",93,105,34.3
